Measured values published in patent publication US12570923B2, “Tuning sulfonation and controlling oleo-furan surfactant compositions” (SIRONIX RENEWABLES, INC., priority 2021, dated 2026).

Experiments:
[1] = Wetting of cotton skein, ASTM D2281; details: cotton skein at 30° C.
[2] = High shear foam height, ASTM D3519; details: 20° C.; for High Shear Foam Height after 5 minutes: ASTM D3519, after 5 minutes; for High Shear Foam Height immediately after foam formation: ASTM D3519, immediately after foam formation

Row | SMILES | Wetting Time [1] [s] | High Shear Foam Height after 5 minutes [2] | High Shear Foam Height immediately after foam formation [2]
1 | CCCCCCCCCCC(C(=O)c1cc(S(=O)(=O)O)c(C)o1)S(=O)(=O)O.N.N (stereo not drawn) [NH4^+4,α-OMFS-12-1/0] | >300 | 31 mm | 37 mm
2 | CCCCCCCCCCC(C(=O)c1cc(S(=O)(=O)[O-])c(C)o1)S(=O)(=O)[O-].[Na+].[Na+] (stereo not drawn) [Na^+ 4,α-OMFS-12-1/0] | >300 | 15 mm | 25 mm
3 | CCCCCCCCCCCCC(C(=O)c1cc(S(=O)(=O)[O-])c(C)o1)S(=O)(=O)[O-].[Na+].[Na+] (stereo not drawn) [Na^+ 4,α-OMFS-14-1/0] | >300 | 50 mm | 53 mm
4 | CCCCCCCCCCCCCCCCC(C(=O)c1cc(S(=O)(=O)[O-])c(C)o1)S(=O)(=O)[O-].[Na+].[Na+] (stereo not drawn) [Na^+ 4,α-OMFS-18-1/0] | 141 | 40/40 mm | 40/40 mm
5 | CCCCCCCCCCCC(=O)c1cc(S(=O)(=O)[O-])c(C)o1.[Na+] [Na^+ 4-OMFS-12-1/0] | 48 | 69 mm | 71 mm
6 | CCCCCCCCCCC(C(=O)c1ccc(C)o1)S(=O)(=O)[O-].[Na+] (stereo not drawn) [Na^+ α-OMFS-12-1/0] | 18 | 65/65 mm | 65/65 mm
